Patent US20150307616A1 (APEXIGEN, published 2015)

Key:
monkey CD40 (monkey) [1] = experiment: summary of Example 2
monkey CD40 (monkey) [2] = experiment: direct ELISA by the text (1 ug/ml CD40 coated, goat anti-human IgG-HRP); the axis of the sheet is labelled MFI; one antibody concentration
monkey CD40 (monkey) [3] = experiment: direct ELISA, legend of FIGS. 11A and 11B
monkey CD40 (monkey) [4] = experiment: direct ELISA on coated CD40 (1 µg/ml)

Measured: binding

B1: APX005 humanized anti-CD40 antibody (antibody, IgG1, V domains shown)
VH: QVQLVESGGGVVQPGRSLRLSCAASGFSFSSTYVCWVRQAPGKGLEWIACIYTGDGTNYSASWAKGRFTISKDSSKNTVYLQMNSLRAEDTAVYFCARPDITYGFAINFWGPGTLVTVSS
VL: DIQMTQSPSSLSASVGDRVTIKCQASQSISSRLAWYQQKPGKPPKLLIYRASTLASGVPSRFSGSGSGTDFTLTISSLQPEDVATYYCQCTGYGISWPIGGGTKVEIK
notes: also called humanized R-8
binds: all assays above

Results are given in words; binding and its absence hold for the method and conditions named. Binding calls can cover weak binding; strength is not graded here.
